Publication PMC11915802
These are yes or no findings as the source states them, for the method shown. In cells and extracts the contact can be indirect. Where a sequence is shown, tags or fusion partners need not be part of it.

By UniProt entry, the sequences of proteins in these tests, tags left out.
UniProt O15393: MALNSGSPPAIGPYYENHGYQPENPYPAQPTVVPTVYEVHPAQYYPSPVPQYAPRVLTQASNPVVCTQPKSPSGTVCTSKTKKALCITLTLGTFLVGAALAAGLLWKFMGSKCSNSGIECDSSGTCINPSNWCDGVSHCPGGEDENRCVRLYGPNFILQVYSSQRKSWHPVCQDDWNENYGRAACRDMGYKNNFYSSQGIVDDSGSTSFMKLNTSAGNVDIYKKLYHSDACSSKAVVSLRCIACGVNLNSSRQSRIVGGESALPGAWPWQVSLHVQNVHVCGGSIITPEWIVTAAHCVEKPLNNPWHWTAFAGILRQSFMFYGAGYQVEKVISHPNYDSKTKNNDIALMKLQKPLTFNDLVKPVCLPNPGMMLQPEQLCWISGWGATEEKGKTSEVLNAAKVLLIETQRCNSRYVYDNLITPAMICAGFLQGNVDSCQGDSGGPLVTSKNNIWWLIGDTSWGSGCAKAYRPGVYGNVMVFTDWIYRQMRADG

Biological target: flag-tagged transmembrane protease serine 2 (TMPRSS2) (UniProt O15393)
Assay: co-IP; 293T cells co-transfected with the indicated plasmids for 24 h; lysed in RIPA buffer (150 mM NaCl, 1% NP40, 20 mM Tris-HCl, 1 mM EDTA, pH 7.4, 0.25% sodium deoxycholate); lysate incubated with Flag antibody overnight at 4°C, Protein A/G plus agarose beads 2 h at 4°C; western blot

- binding: no binding
B1: myc-tagged phospholipid scramblase 1 (PLSCR1) (protein, UniProt O15162 1-318)
chain: MDKQNSQMNASHPETNLPVGYPPQYPPTAFQGPPGYSGYPGPQVSYPPPPAGHSGPGPAGFPVPNQPVYNQPVYNQPVGAAGVPWMPAPQPPLNCPPGLEYLSQIDQILIHQQIELLEVLTGFETNNKYEIKNSFGQRVYFAAEDTDCCTRNCCGPSRPFTLRIIDNMGQEVITLERPLRCSSCCCPCCLQEIEIQAPPGVPIGYVIQTWHPCLPKFTIQNEKREDVLKISGPCVVCSCCGDVDFEIKSLDEQCVVGKISKHWTGILREAFTDADNFGIQFPLDLDVKMKAVMIGACFLIDFMFFESTGSQEQKSGVW
